This is an account of results in patent publication US8748369B2, “Use of targeted nitroxide agents in bone healing” (University of Pittsburgh-Of the Commonwealth System of …, priority 2009, dated 2014).

Structures are written as SMILES.

The data set relates to rats subjected to volume-controlled hemorrhagic shock. Briefly: Survival of rats subjected to volume-controlled hemorrhagic shock. It counts as in vivo, rat. On the procedure:
Survival of Rats Subjected to Volume-controlled Hemorrhagic Shock. Following surgical preparation and a 5-min stabilization period to obtain baseline readings, rats were subjected to hemorrhagic shock. Bleeding was carried out in 2 phases.
Initially, 21 ml/kg of blood was withdrawn over 20 min. Immediately thereafter, an additional 12.5 ml/kg of blood was withdrawn over 40 min. Thus, hemorrhage occurred over a total period of 60 min and the total blood loss was 33.5 ml/kg or approximately 55% of the total blood volume. Rats were randomly assigned to receive XJB-5-131 (2 μmmol/kg) or its vehicle, a 33:67 (v/v) mixture of DMSO and normal saline. XJB-5-131 solution or vehicle alone was administered as a continuous infusion during the last 20 min of the hemorrhage period. The total volume of fluid infused was 2.8 ml/kg and it was administered intravenously using a syringe pump (KD100, KD Scientific, New Hope, Pa.). […] At the end of the 6 hour observation period, animals that were still alive were euthanized with an overdose of KCl.
Blood pressure was recorded continuously using a commercial strain-gauge transducer, amplifier, and monitor (590603a, SpaceLabs, Redmond, Wash.). Blood samples (0.5 ml) were collected from the jugular vein at the beginning of hemorrhage (baseline), at the end of hemorrhage (shock) and at the end of resuscitation (resuscitation). Hemoglobin concentration [Hb], lactate and glucose concentration were determined using an auto-analyzer (Model ABL 725, Radiometer Copenhagen, Westlake, Ohio).
A total of sixteen rats were tested in this study. Rats were treated with 2.8 ml/kg of vehicle or the same volume of XJB-5-131 solution during the final 20 min of the bleeding protocol. The total dose of XJB-5-131 infused was 2 μmol/kg. Following profound hemorrhagic shock consistent with the protocol described above for the prior studies, thirteen survived for at least 60 min and received the full dose of either XJB-5-131 solution or the vehicle, a 33:67 (v/v) mixture of DMSO and normal saline. […] None of the between-group differences were statistically significant.

[1] abbreviates: End of first phase of hemorrhage.
Where [2] appears, read: End of second phase of hemorrhage, 2 μmol/kg IV.

Turning to `CC(C)C[C@@H](/C=C/[C@H](Cc1ccccc1)C(=O)N1CCC[C@H]1C(=O)N[C@H](C(=O)N[C@@H](CCCNC(=O)OCc1ccccc1)C(=O)NC1CC(C)(C)N([O])C(C)(C)C1)C(C)C)NC(=O)OC(C)(C)C` [XJB-5-131], for the setting “Baseline”, the “Blood Hb concentration” value worked out at 12.7 ± 0.3 g/dL, the Blood glucose concentration is 134 ± 4 mg/dL and the Blood lactate concentration was found to be 1.8 ± 0.2 mEq/L. For the same compound, under setting [1], the “Blood Hb concentration” value came to 10.7 ± 0.3 g/dL, the Blood glucose concentration came to 228 ± 24 mg/dL and the Blood lactate concentration came out at 5.7 ± 0.8 mEq/L. Further, under setting [2], the “Blood Hb concentration” value came out at 9.4 ± 0.3 g/dL, the Blood glucose concentration is listed as 201 ± 38 mg/dL and the Blood lactate concentration is 5.6 ± 1.2 mEq/L.
